In patent US20250074896A1, “ARYLTETRAHYDROPYRIDAZINE DERIVATIVE OR SALT THEREOF AND INSECTICIDAL AGENT CONTAINING THE COMPOUND AND METHOD FOR USING SAME” (NIHON NOHYAKU CO., LTD., priority 2021, published 2025):
Some of these results come from one statement about several compounds together.

Key:
Type in all cases: in vivo
[1] = system: Western Flower Thrips (Frankliniella occidentalis); assay: Insecticidal test on western flower thrips (kidney bean leaf pieces, hatched larvae); conditions: 4 days after the treatment
[2] = system: Diamondback moth (Plutella xylostella); assay: Insecticidal test on diamondback moth (dip treatment of Chinese cabbage seedlings with laid eggs); conditions: dip about 30 seconds, 6 days after treatment, 25° C.
[3] = system: Small Brown Planthopper (Laodelphax striatellus); assay: Insecticidal test on small brown planthopper (dipped rice seedlings, 3rd-instar larvae); conditions: rice seedlings dipped 30 seconds, 8 days after inoculation

Cc1cc(N2CC(O)=C(C(=O)Nc3cccc(F)c3)C(=O)N2)cnc1C#N [1-270]
A (the mortality rate is 100%): insecticidal efficacy (corrected mortality rate) against western flower thrips ([1]; 50 ppm) | insecticidal efficacy (corrected mortality rate) against western flower thrips ([1]; 500 ppm) | insecticidal efficacy (corrected mortality rate) against diamondback moth ([2]; 50 ppm) | insecticidal efficacy (corrected mortality rate) against diamondback moth ([2]; 500 ppm) | insecticidal efficacy (corrected mortality rate) against small brown planthopper ([3]; 50 ppm) | insecticidal efficacy (corrected mortality rate) against small brown planthopper ([3]; 500 ppm)

CC(C)OC(=O)N1C(=O)C(C(=O)Nc2ccc(F)cc2)=C(O)CN1c1ccc(C(F)(F)F)nc1 [3-266]
A (the mortality rate is 100%): insecticidal efficacy (corrected mortality rate) against western flower thrips ([1]; 50 ppm) | insecticidal efficacy (corrected mortality rate) against western flower thrips ([1]; 500 ppm) | insecticidal efficacy (corrected mortality rate) against diamondback moth ([2]; 50 ppm) | insecticidal efficacy (corrected mortality rate) against diamondback moth ([2]; 500 ppm) | insecticidal efficacy (corrected mortality rate) against small brown planthopper ([3]; 50 ppm) | insecticidal efficacy (corrected mortality rate) against small brown planthopper ([3]; 500 ppm)

CC(C)(C)OC(=O)N1C(=O)C(C(=S)Nc2ccc(C#N)cc2)=C(O)CN1c1ccc(C(F)(F)F)nc1 [4-33]
A (the mortality rate is 100%): insecticidal efficacy (corrected mortality rate) against western flower thrips ([1]; 500 ppm) | insecticidal efficacy (corrected mortality rate) against diamondback moth ([2]; 500 ppm) | insecticidal efficacy (corrected mortality rate) against small brown planthopper ([3]; 500 ppm)

COC(=O)N1C(=O)C(C(=O)Nc2ccc(F)nc2)=C(O)CN1c1ccc(Br)nc1 [3-113]
A (the mortality rate is 100%): insecticidal efficacy (corrected mortality rate) against western flower thrips ([1]; 50 ppm) | insecticidal efficacy (corrected mortality rate) against western flower thrips ([1]; 500 ppm) | insecticidal efficacy (corrected mortality rate) against diamondback moth ([2]; 50 ppm) | insecticidal efficacy (corrected mortality rate) against diamondback moth ([2]; 500 ppm) | insecticidal efficacy (corrected mortality rate) against small brown planthopper ([3]; 50 ppm) | insecticidal efficacy (corrected mortality rate) against small brown planthopper ([3]; 500 ppm)

COC(=O)N1C(=O)C(C(=O)Nc2cccc(F)c2)=C(O)CN1c1cnc(C#N)c(Cl)c1 [3-462]
A (the mortality rate is 100%): insecticidal efficacy (corrected mortality rate) against western flower thrips ([1]; 50 ppm) | insecticidal efficacy (corrected mortality rate) against western flower thrips ([1]; 500 ppm) | insecticidal efficacy (corrected mortality rate) against diamondback moth ([2]; 50 ppm) | insecticidal efficacy (corrected mortality rate) against diamondback moth ([2]; 500 ppm) | insecticidal efficacy (corrected mortality rate) against small brown planthopper ([3]; 50 ppm) | insecticidal efficacy (corrected mortality rate) against small brown planthopper ([3]; 500 ppm)

CC(C)(C)OC(=O)N1C(=O)C(C(=S)Nc2ccccc2)=C(O)CN1c1ccc(C(F)(F)F)nc1 [4-43]
A (the mortality rate is 100%): insecticidal efficacy (corrected mortality rate) against western flower thrips ([1]; 500 ppm) | insecticidal efficacy (corrected mortality rate) against diamondback moth ([2]; 500 ppm) | insecticidal efficacy (corrected mortality rate) against small brown planthopper ([3]; 500 ppm)

CCc1ccc(NC(=O)C2=C(O)CN(c3ccc(C(F)(F)F)nc3)NC2=O)cc1 [1-91]
A (the mortality rate is 100%): insecticidal efficacy (corrected mortality rate) against western flower thrips ([1]; 500 ppm) | insecticidal efficacy (corrected mortality rate) against diamondback moth ([2]; 500 ppm) | insecticidal efficacy (corrected mortality rate) against small brown planthopper ([3]; 500 ppm)

N#Cc1ccc(NC(=O)C2=C(O)CN(c3ccc(C#N)cc3)NC2=O)cc1 [1-18]
A (the mortality rate is 100%): insecticidal efficacy (corrected mortality rate) against western flower thrips ([1]; 50 ppm) | insecticidal efficacy (corrected mortality rate) against western flower thrips ([1]; 500 ppm) | insecticidal efficacy (corrected mortality rate) against diamondback moth ([2]; 50 ppm) | insecticidal efficacy (corrected mortality rate) against diamondback moth ([2]; 500 ppm) | insecticidal efficacy (corrected mortality rate) against small brown planthopper ([3]; 500 ppm)

COc1ccc(NC(=O)C2=C(O)CN(c3ccc(C(F)(F)F)nc3)NC2=O)nc1 [1-127]
A (the mortality rate is 100%): insecticidal efficacy (corrected mortality rate) against western flower thrips ([1]; 500 ppm) | insecticidal efficacy (corrected mortality rate) against diamondback moth ([2]; 500 ppm) | insecticidal efficacy (corrected mortality rate) against small brown planthopper ([3]; 500 ppm)

COC(=O)N1C(=O)C(C(=O)Nc2ccc(F)c(F)c2F)=C(O)CN1c1cnc(C#N)c(C)c1 [3-534]
A (the mortality rate is 100%): insecticidal efficacy (corrected mortality rate) against western flower thrips ([1]; 50 ppm) | insecticidal efficacy (corrected mortality rate) against western flower thrips ([1]; 500 ppm) | insecticidal efficacy (corrected mortality rate) against diamondback moth ([2]; 50 ppm) | insecticidal efficacy (corrected mortality rate) against diamondback moth ([2]; 500 ppm) | insecticidal efficacy (corrected mortality rate) against small brown planthopper ([3]; 50 ppm) | insecticidal efficacy (corrected mortality rate) against small brown planthopper ([3]; 500 ppm)

N#Cc1ccc(NC(=O)C2=C(O)CN(c3cnc(C#N)c(Cl)c3)NC2=O)cc1 [1-217]
A (the mortality rate is 100%): insecticidal efficacy (corrected mortality rate) against western flower thrips ([1]; 50 ppm) | insecticidal efficacy (corrected mortality rate) against western flower thrips ([1]; 500 ppm) | insecticidal efficacy (corrected mortality rate) against diamondback moth ([2]; 50 ppm) | insecticidal efficacy (corrected mortality rate) against diamondback moth ([2]; 500 ppm) | insecticidal efficacy (corrected mortality rate) against small brown planthopper ([3]; 50 ppm) | insecticidal efficacy (corrected mortality rate) against small brown planthopper ([3]; 500 ppm)

CCCNC(=O)N1C(=O)C(C(=O)Nc2ccc(F)cc2)=C(O)CN1c1ccc(C#N)nc1 [3-64]
A (the mortality rate is 100%): insecticidal efficacy (corrected mortality rate) against western flower thrips ([1]; 50 ppm) | insecticidal efficacy (corrected mortality rate) against western flower thrips ([1]; 500 ppm) | insecticidal efficacy (corrected mortality rate) against diamondback moth ([2]; 500 ppm) | insecticidal efficacy (corrected mortality rate) against small brown planthopper ([3]; 50 ppm) | insecticidal efficacy (corrected mortality rate) against small brown planthopper ([3]; 500 ppm)

COCCOC(=O)N1C(=O)C(C(=S)Nc2ccccc2)=C(O)CN1c1ccc(C#N)nc1 [4-70]
A (the mortality rate is 100%): insecticidal efficacy (corrected mortality rate) against western flower thrips ([1]; 50 ppm) | insecticidal efficacy (corrected mortality rate) against western flower thrips ([1]; 500 ppm) | insecticidal efficacy (corrected mortality rate) against diamondback moth ([2]; 500 ppm) | insecticidal efficacy (corrected mortality rate) against small brown planthopper ([3]; 50 ppm) | insecticidal efficacy (corrected mortality rate) against small brown planthopper ([3]; 500 ppm)

O=C(NCc1ccccn1)C1=C(O)CN(c2ccc(C(F)(F)F)nc2)NC1=O [1-40]
A (the mortality rate is 100%): insecticidal efficacy (corrected mortality rate) against western flower thrips ([1]; 500 ppm) | insecticidal efficacy (corrected mortality rate) against diamondback moth ([2]; 500 ppm) | insecticidal efficacy (corrected mortality rate) against small brown planthopper ([3]; 500 ppm)

CCc1cccc(NC(=O)C2=C(O)CN(c3cnc(C#N)c(Cl)c3)N(C(=O)OC)C2=O)n1 [3-490]
A (the mortality rate is 100%): insecticidal efficacy (corrected mortality rate) against western flower thrips ([1]; 500 ppm) | insecticidal efficacy (corrected mortality rate) against diamondback moth ([2]; 50 ppm) | insecticidal efficacy (corrected mortality rate) against diamondback moth ([2]; 500 ppm) | insecticidal efficacy (corrected mortality rate) against small brown planthopper ([3]; 500 ppm)

N#Cc1ccc(N2CC(O)=C(C(=O)Nc3ccc(Cl)cc3)C(=O)N2)cn1 [1-87]
A (the mortality rate is 100%): insecticidal efficacy (corrected mortality rate) against western flower thrips ([1]; 500 ppm) | insecticidal efficacy (corrected mortality rate) against diamondback moth ([2]; 500 ppm) | insecticidal efficacy (corrected mortality rate) against small brown planthopper ([3]; 500 ppm)

O=C(Nc1ccc(F)nc1)C1=C(O)CN(c2ccc(Cl)cn2)NC1=O [1-53]
A (the mortality rate is 100%): insecticidal efficacy (corrected mortality rate) against western flower thrips ([1]; 500 ppm) | insecticidal efficacy (corrected mortality rate) against diamondback moth ([2]; 50 ppm) | insecticidal efficacy (corrected mortality rate) against diamondback moth ([2]; 500 ppm) | insecticidal efficacy (corrected mortality rate) against small brown planthopper ([3]; 50 ppm) | insecticidal efficacy (corrected mortality rate) against small brown planthopper ([3]; 500 ppm)

COc1cnc(NC(=O)C2=C(O)CN(c3ccc(Br)nc3)NC2=O)cn1 [1-309]
A (the mortality rate is 100%): insecticidal efficacy (corrected mortality rate) against western flower thrips ([1]; 500 ppm) | insecticidal efficacy (corrected mortality rate) against diamondback moth ([2]; 500 ppm) | insecticidal efficacy (corrected mortality rate) against small brown planthopper ([3]; 50 ppm) | insecticidal efficacy (corrected mortality rate) against small brown planthopper ([3]; 500 ppm)

O=C(Nc1ccc(F)cc1)C1=C(O)CN(c2ccc(C(F)(F)F)nc2)N(C(=O)OCCCl)C1=O [3-318]
A (the mortality rate is 100%): insecticidal efficacy (corrected mortality rate) against western flower thrips ([1]; 50 ppm) | insecticidal efficacy (corrected mortality rate) against western flower thrips ([1]; 500 ppm) | insecticidal efficacy (corrected mortality rate) against diamondback moth ([2]; 50 ppm) | insecticidal efficacy (corrected mortality rate) against diamondback moth ([2]; 500 ppm) | insecticidal efficacy (corrected mortality rate) against small brown planthopper ([3]; 50 ppm) | insecticidal efficacy (corrected mortality rate) against small brown planthopper ([3]; 500 ppm)

N#Cc1ccc(NC(=O)C2=C(O)CN(c3ccc(C(F)(F)F)nc3)NC2=O)cn1 [1-49]
A (the mortality rate is 100%): insecticidal efficacy (corrected mortality rate) against western flower thrips ([1]; 500 ppm) | insecticidal efficacy (corrected mortality rate) against diamondback moth ([2]; 500 ppm) | insecticidal efficacy (corrected mortality rate) against small brown planthopper ([3]; 500 ppm)

N#Cc1ccc(N2CC(O)=C(C(=O)Nc3ccc(Br)nc3)C(=O)N2)nc1 [1-382]
A (the mortality rate is 100%): insecticidal efficacy (corrected mortality rate) against western flower thrips ([1]; 50 ppm) | insecticidal efficacy (corrected mortality rate) against western flower thrips ([1]; 500 ppm) | insecticidal efficacy (corrected mortality rate) against diamondback moth ([2]; 50 ppm) | insecticidal efficacy (corrected mortality rate) against diamondback moth ([2]; 500 ppm) | insecticidal efficacy (corrected mortality rate) against small brown planthopper ([3]; 50 ppm) | insecticidal efficacy (corrected mortality rate) against small brown planthopper ([3]; 500 ppm)
